These are yes or no findings as the source states them, for the method shown. Some binding calls cover weakened binding; strength is not graded here.
Experiments:
[1] = target: P-selectin (R&D Systems), coated on glass slides (UniProt P16109); assay: PLGA nanoparticles on coated surfaces under flow
[2] = target: P-selectin (R&D Systems), coated on glass slides (UniProt P16109); assay: 100-nm polystyrene nanoparticles on P-selectin coated surfaces under physiological flow
[3] = target: P-selectin expressed on histamine-activated endothelial cells (HAECs) (UniProt P16109); assay: adhesion of GP Ib conjugated nanoparticles to HAECs under varying shear stress (FIG. 34)
[4] = target: P-selectin (R&D Systems), coated on glass slides (UniProt P16109); assay: parallel plate flow chamber, polystyrene nanoparticles, fluorometer and confocal microscopy

The chains behind the UniProt entries cited, without tags or fusion partners. Where a name states a change or a piece, a line headed by the entry shows the natural chain unless it says otherwise. Residues count along the entry.
UniProt P16109: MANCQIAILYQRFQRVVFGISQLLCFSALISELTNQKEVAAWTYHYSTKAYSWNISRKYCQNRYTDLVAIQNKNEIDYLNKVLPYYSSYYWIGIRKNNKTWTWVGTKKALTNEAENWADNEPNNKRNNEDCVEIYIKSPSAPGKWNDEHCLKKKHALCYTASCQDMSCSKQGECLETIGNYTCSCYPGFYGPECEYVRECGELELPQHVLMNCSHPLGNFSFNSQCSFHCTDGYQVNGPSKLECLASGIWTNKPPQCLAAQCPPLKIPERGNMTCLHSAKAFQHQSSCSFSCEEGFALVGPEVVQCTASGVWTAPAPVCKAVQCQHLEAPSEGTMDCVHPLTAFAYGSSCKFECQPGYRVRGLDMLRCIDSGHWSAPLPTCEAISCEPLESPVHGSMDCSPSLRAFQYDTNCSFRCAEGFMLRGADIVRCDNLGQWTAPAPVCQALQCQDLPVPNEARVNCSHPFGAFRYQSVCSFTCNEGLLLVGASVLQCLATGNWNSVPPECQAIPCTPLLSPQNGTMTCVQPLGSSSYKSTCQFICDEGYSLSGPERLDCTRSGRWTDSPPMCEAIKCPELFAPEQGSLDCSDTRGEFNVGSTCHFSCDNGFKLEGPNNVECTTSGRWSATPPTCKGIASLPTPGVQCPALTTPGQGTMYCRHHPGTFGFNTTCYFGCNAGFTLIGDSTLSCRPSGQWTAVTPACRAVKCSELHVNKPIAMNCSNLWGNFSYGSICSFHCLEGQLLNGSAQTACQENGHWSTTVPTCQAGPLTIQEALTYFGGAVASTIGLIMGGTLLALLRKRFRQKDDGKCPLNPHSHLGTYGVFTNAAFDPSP
P-selectin expressed on histamine-activated endothelial cells (HAECs): residues 42-830 of P16109
P-selectin (R&D Systems), coated on glass slides: residues 42-771 of P16109
UniProt P07359, residues 17-531: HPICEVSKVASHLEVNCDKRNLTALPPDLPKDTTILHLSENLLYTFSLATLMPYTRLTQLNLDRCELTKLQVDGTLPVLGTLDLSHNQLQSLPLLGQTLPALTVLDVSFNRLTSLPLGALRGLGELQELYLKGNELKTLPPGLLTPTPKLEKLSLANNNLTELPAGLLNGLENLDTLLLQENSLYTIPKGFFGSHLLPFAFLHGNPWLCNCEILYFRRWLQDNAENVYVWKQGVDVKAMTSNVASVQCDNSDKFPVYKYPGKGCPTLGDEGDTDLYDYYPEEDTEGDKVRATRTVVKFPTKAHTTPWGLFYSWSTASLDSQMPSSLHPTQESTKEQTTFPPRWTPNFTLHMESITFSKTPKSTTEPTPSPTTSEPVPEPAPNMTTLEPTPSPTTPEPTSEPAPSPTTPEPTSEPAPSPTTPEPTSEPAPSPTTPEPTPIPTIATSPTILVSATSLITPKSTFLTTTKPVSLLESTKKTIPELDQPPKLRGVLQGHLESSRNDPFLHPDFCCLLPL

binding [1]: binds
binding [2]: binds
binding [3]: binds
binding [4]: binds
Substance: glycocalicin (the extracellular segment of platelet GP Ibα), biotinylated and bound through avidin to nanoparticles (from UniProt P07359 17-531) (receptor)

Source: US20110097416A1
